# The supplement of paper PMC8728848
# The list shows a part of the results.
# B1: OS9-MRH (Homo sapiens), Q13438 (protein)
# chain: IPELLSPMRDAPCLLKTKDWWTYEFCYGRHIQQYHMEDSEIKGEVLYLGYYQSAFDWDDETAKASKQHRLKRYHSQTYGNGSKCDLNGRPREAEVRFLCDEGAGISGDYIDRVDEPLSCSYVLTIRTPRLCPHPLLRPPPSAAPQAI
# Tests used:
# Assay in all cases: glycan array binding signal (z-score within array); higher = stronger binding
# Settings in all cases: glycan notation: IUPAC condensed, linker removed
# Fuc(a1-2)Gal = target: Fuc(a1-2)Gal
# Summary of the method: (§1)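 Arrays were curated from the Consortium for Functional Glycomics database, 3228 in total, and kept only where the protein sequence was available. Binding is expressed as a within-array Z-score. This score was averaged across arrays of the same protein sequence at different concentrations or buffers and across linkers, and negative values can be read as non-binding.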
# Fuc(a1-2)Gal(b1-3)GalNAc = target: Fuc(a1-2)Gal(b1-3)GalNAc
# Summary of the method: as §1
# [1] = target: Fuc(a1-2)Gal(b1-3)GalNAc(a1-3)[Fuc(a1-2)]Gal(b1-4)Glc
# Summary of the method: as §1
# [2] = target: Fuc(a1-2)Gal(b1-3)GalNAc(a1-3)[Fuc(a1-2)]Gal(b1-4)GlcNAc
# Summary of the method: as §1
# [3] = target: Fuc(a1-2)Gal(b1-3)GalNAc(b1-3)Gal
# Summary of the method: as §1
# [4] = target: Fuc(a1-2)Gal(b1-3)GalNAc(b1-3)Gal(a1-4)Gal(b1-4)Glc
# Summary of the method: as §1
# [5] = target: Fuc(a1-2)Gal(b1-3)GalNAc(b1-4)[Neu5Ac(a2-3)]Gal(b1-4)Glc
# Summary of the method: as §1
# Fuc(a1-2)Gal(b1-3)GlcNAc = target: Fuc(a1-2)Gal(b1-3)GlcNAc
# Summary of the method: as §1
# [6] = target: Fuc(a1-2)Gal(b1-3)GlcNAc(b1-2)Man(a1-3)[Fuc(a1-2)Gal(b1-3)GlcNAc(b1-2)Man(a1-6)]Man(b1-4)GlcNAc(b1-4)GlcNAc
# Summary of the method: as §1
# [7] = target: Fuc(a1-2)Gal(b1-3)GlcNAc(b1-2)Man(a1-3)[Fuc(a1-2)Gal(b1-3)GlcNAc(b1-2)Man(a1-6)]Man(b1-4)GlcNAc(b1-4)[Fuc(a1-6)]GlcNAc
# Summary of the method: as §1
# [8] = target: Fuc(a1-2)Gal(b1-3)GlcNAc(b1-3)Gal(b1-4)Glc
# Summary of the method: as §1
# [9] = target: Fuc(a1-2)Gal(b1-3)GlcNAc(b1-3)GalNAc
# Summary of the method: as §1
# [10] = target: Fuc(a1-2)Gal(b1-3)GlcNAc(b1-3)[Fuc(a1-2)Gal(b1-3)GlcNAc(b1-6)]GalNAc
# Summary of the method: as §1
# [11] = target: Fuc(a1-2)Gal(b1-3)GlcNAc(b1-3)[Gal(b1-4)GlcNAc(b1-6)]Gal(b1-4)Glc
# Summary of the method: as §1
# [12] = target: Fuc(a1-2)Gal(b1-3)GlcNAc(b1-3)[Neu5Ac(a2-6)Gal(b1-4)GlcNAc(b1-6)]Gal(b1-4)Glc
# Summary of the method: as §1
# [13] = target: Fuc(a1-2)Gal(b1-3)GlcNAc6S
# Summary of the method: as §1
# [14] = target: Fuc(a1-2)Gal(b1-3)[Fuc(a1-4)]GlcNAc
# Summary of the method: as §1
# [15] = target: Fuc(a1-2)Gal(b1-3)[Fuc(a1-4)]GlcNAc(b1-2)Man(a1-3)[Fuc(a1-2)Gal(b1-3)[Fuc(a1-4)]GlcNAc(b1-2)Man(a1-3)]Man(b1-4)GlcNAc(b1-4)GlcNAc
# Summary of the method: as §1
# [16] = target: Fuc(a1-2)Gal(b1-3)[Fuc(a1-4)]GlcNAc(b1-2)Man(a1-3)[Fuc(a1-2)Gal(b1-3)[Fuc(a1-4)]GlcNAc(b1-2)Man(a1-6)]Man(b1-4)GlcNAc(b1-4)[Fuc(a1-6)]GlcNAc(b1-4)[Fuc(a1-6)]GlcNAc
# Summary of the method: as §1
# [17] = target: Fuc(a1-2)Gal(b1-3)[Fuc(a1-4)]GlcNAc(b1-3)[Fuc(a1-3)[Gal(b1-4)]GlcNAc(b1-6)]Gal(b1-4)Glc
# Summary of the method: as §1
# [18] = target: Fuc(a1-2)Gal(b1-3)[Fuc(a1-4)]GlcNAc(b1-3)[Gal(b1-4)GlcNAc(b1-6)]Gal(b1-4)Glc
# Summary of the method: as §1
# [19] = target: Fuc(a1-2)Gal(b1-4)Fuc(a1-3)]GlcNAc(b1-2)Man(a1-3)[Fuc(a1-2)Gal(b1-4)[Fuc(a1-3)]GlcNAc(b1-2)Man(a1-6)]Man(b1-4)GlcNAc(b1-4)GlcNAc
# Summary of the method: as §1
# Fuc(a1-2)Gal(b1-4)Glc = target: Fuc(a1-2)Gal(b1-4)Glc
# Summary of the method: as §1
# Fuc(a1-2)Gal(b1-4)Glc6S = target: Fuc(a1-2)Gal(b1-4)Glc6S
# Summary of the method: as §1
# Fuc(a1-2)Gal(b1-4)GlcNAc = target: Fuc(a1-2)Gal(b1-4)GlcNAc
# Summary of the method: as §1
# [20] = target: Fuc(a1-2)Gal(b1-4)GlcNAc(b1-2)Man
# Summary of the method: as §1
# [21] = target: Fuc(a1-2)Gal(b1-4)GlcNAc(b1-2)Man(a1-3)[Fuc(a1-2)Gal(b1-4)GlcNAc(b1-2)Man(a1-6)]Man(b1-4)GlcNAc(b1-4)GlcNAc
# Summary of the method: as §1
# [22] = target: Fuc(a1-2)Gal(b1-4)GlcNAc(b1-2)Man(a1-3)[Fuc(a1-2)Gal(b1-4)GlcNAc(b1-2)Man(a1-6)]Man(b1-4)GlcNAc(b1-4)[Fuc(a1-6)]GlcNAc
# Summary of the method: as §1
# [23] = target: Fuc(a1-2)Gal(b1-4)GlcNAc(b1-2)[Fuc(a1-2)Gal(b1-4)GlcNAc(b1-4)]Man(a1-3)[Fuc(a1-2)Gal(b1-4)GlcNAc(b1-2)Man(a1-6)]Man(b1-4)GlcNAc(b1-4)GlcNAc
# Summary of the method: as §1
# [24] = target: Fuc(a1-2)Gal(b1-4)GlcNAc(b1-3)Gal(b1-4)GlcNAc
# Summary of the method: as §1
# [25] = target: Fuc(a1-2)Gal(b1-4)GlcNAc(b1-3)Gal(b1-4)GlcNAc(b1-2)Man(a1-3)[Fuc(a1-2)Gal(b1-4)GlcNAc(b1-3)Gal(b1-4)GlcNAc(b1-2)Man(a1-6)]Man(b1-4)GlcNAc(b1-4)GlcNAc
# Summary of the method: as §1
# [26] = target: Fuc(a1-2)Gal(b1-4)GlcNAc(b1-3)Gal(b1-4)GlcNAc(b1-3)Gal(b1-4)GlcNAc
# Summary of the method: as §1
# [27] = target: Fuc(a1-2)Gal(b1-4)GlcNAc(b1-3)GalNAc
# Summary of the method: as §1
# [28] = target: Fuc(a1-2)Gal(b1-4)GlcNAc(b1-3)[Fuc(a1-2)Gal(b1-4)GlcNAc(b1-6)]GalNAc
# Summary of the method: as §1
# [29] = target: Fuc(a1-2)Gal(b1-4)GlcNAc(b1-3)[Fuc(a1-3)[Gal(b1-4)]GlcNAc(b1-6)]Gal(b1-4)Glc
# Summary of the method: as §1
# [30] = target: Fuc(a1-2)Gal(b1-4)GlcNAc(b1-6)GalNAc
# Summary of the method: as §1
# [31] = target: Fuc(a1-2)Gal(b1-4)GlcNAc6S
# Summary of the method: as §1
# [32] = target: Fuc(a1-2)Gal(b1-4)[Fuc(a1-3)]GlcNAc
# Summary of the method: as §1
# [33] = target: Fuc(a1-2)Gal(b1-4)[Fuc(a1-3)]GlcNAc(b1-2)Man(a1-3)[Fuc(a1-2)Gal(b1-4)[Fuc(a1-3)]GlcNAc(b1-2)Man(a1-6)]Man(b1-4)GlcNAc(b1-4)[Fuc(a1-6)]GlcNAc
# Summary of the method: as §1
# [34] = target: Fuc(a1-2)Gal(b1-4)[Fuc(a1-3)]GlcNAc(b1-2)[Fuc(a1-2)Gal(b1-4)[Fuc(a1-3)]GlcNAc(b1-4)]Man(a1-3)[Fuc(a1-2)Gal(b1-4)[Fuc(a1-3)]GlcNAc(b1-2)Man(a1-6)]Man(b1-4)GlcNAc(b1-4)GlcNAc
# Summary of the method: as §1
# [35] = target: Fuc(a1-2)Gal(b1-4)[Fuc(a1-3)]GlcNAc(b1-3)Gal(b1-4)[Fuc(a1-3)]GlcNAc
# Summary of the method: as §1
# [36] = target: Fuc(a1-2)Gal(b1-4)[Fuc(a1-3)]GlcNAc(b1-3)Gal(b1-4)[Fuc(a1-3)]GlcNAc(b1-3)Gal(b1-4)[Fuc(a1-3)]GlcNAc
# Summary of the method: as §1
# [37] = target: Fuc(a1-2)Gal(b1-4)[Fuc(a1-3)]GlcNAc(b1-3)GalNAc
# Summary of the method: as §1
# [38] = target: Fuc(a1-2)Gal(b1-4)[Fuc(a1-3)]GlcNAc(b1-3)[Neu5Ac(a2-6)Gal(b1-4)GlcNAc(b1-6)]Gal(b1-4)Glc
# Summary of the method: as §1
# [39] = target: Fuc(a1-2)Gal3S(b1-4)GlcNAc
# Summary of the method: as §1
binder,measurement,setting,value
B1,glycan array binding signal (z-score),Fuc(a1-2)Gal,0.871
same,glycan array binding signal (z-score),Fuc(a1-2)Gal(b1-3)GalNAc,-0.509
same,glycan array binding signal (z-score),[1],0.724
same,glycan array binding signal (z-score),[2],0.485
same,glycan array binding signal (z-score),[3],0.513
same,glycan array binding signal (z-score),[4],-0.271
same,glycan array binding signal (z-score),[5],0.061
same,glycan array binding signal (z-score),Fuc(a1-2)Gal(b1-3)GlcNAc,1.35
same,glycan array binding signal (z-score),[6],0.554
same,glycan array binding signal (z-score),[7],-0.758
same,glycan array binding signal (z-score),[8],0.221
same,glycan array binding signal (z-score),[9],0.497
same,glycan array binding signal (z-score),[10],-0.514
same,glycan array binding signal (z-score),[11],-0.798
same,glycan array binding signal (z-score),[12],0.616
same,glycan array binding signal (z-score),[13],3.15
same,glycan array binding signal (z-score),[14],-1.22
same,glycan array binding signal (z-score),[15],-1.15
same,glycan array binding signal (z-score),[16],0.415
same,glycan array binding signal (z-score),[17],0.3
same,glycan array binding signal (z-score),[18],0.55
same,glycan array binding signal (z-score),[19],0.606
same,glycan array binding signal (z-score),Fuc(a1-2)Gal(b1-4)Glc,-0.321
same,glycan array binding signal (z-score),Fuc(a1-2)Gal(b1-4)Glc6S,-0.942
same,glycan array binding signal (z-score),Fuc(a1-2)Gal(b1-4)GlcNAc,-0.627
same,glycan array binding signal (z-score),[20],-0.95
same,glycan array binding signal (z-score),[21],-0.159
same,glycan array binding signal (z-score),[22],-0.83
same,glycan array binding signal (z-score),[23],-1.2
same,glycan array binding signal (z-score),[24],-1.1
same,glycan array binding signal (z-score),[25],-0.256
same,glycan array binding signal (z-score),[26],0.125
same,glycan array binding signal (z-score),[27],-1.17
same,glycan array binding signal (z-score),[28],-0.382
same,glycan array binding signal (z-score),[29],1.16
same,glycan array binding signal (z-score),[30],-0.896
same,glycan array binding signal (z-score),[31],2.76
same,glycan array binding signal (z-score),[32],-0.709
same,glycan array binding signal (z-score),[33],1.33
same,glycan array binding signal (z-score),[34],1.22
same,glycan array binding signal (z-score),[35],-0.02
same,glycan array binding signal (z-score),[36],-0.298
same,glycan array binding signal (z-score),[37],-0.589
same,glycan array binding signal (z-score),[38],1.26
same,glycan array binding signal (z-score),[39],-1.59

# Taken from the results shown for reference:
binder,measurement,setting,value
B1,glycan array binding signal (z-score),[12],0.616
same,glycan array binding signal (z-score),[13],3.15
